# Data as given in PubChem BioAssay AID1259425 (University of Nebraska Medical Center, 2018).
# Purpose: 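Compare each knockdown with KSR1 silencing using changes in marker transcripts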 (primary screen)
# Cell system: HCT116 human colon cancer cells
# Knock-down reagent: siRNA pool against human genes, 50 nM siRNA
# Measurement: 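mRNA of six signature genes measured together by branched-DNA assay after 50 nM siRNA pool, blank removed, divided by geometric mean of two housekeeping genes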
# Reading the numbers: BNIP3L mRNA: higher = more BNIP3L transcript after knockdown; NDRG1 mRNA: higher = more NDRG1 transcript after knockdown; BNIP3 mRNA: higher = more BNIP3 transcript after knockdown; ALDOC mRNA: higher = more ALDOC transcript after knockdown; ACSL5 mRNA: higher = more ACSL5 transcript after knockdown
# In all, the deposit lists about 14,000 reagents; below is a part drawn at random. Reagent sequences are not shown. The record does not give: the time to read-out.
Target gene,"BNIP3L mRNA, set 1","NDRG1 mRNA, set 1","BNIP3 mRNA, set 1","ALDOC mRNA, set 1","ACSL5 mRNA, set 1"
WDR83OS,0.0495,0.204,0.391,0.0218,0.208
NR1I3,0.087,0.0767,0.272,0.0119,0.103
ATP5F1B,0.321,0.544,0.381,0.0659,0.467
PLOD1,0.122,0.376,0.345,0.0331,0.13
KBTBD4,0.198,0.555,0.293,0.0818,0.325
MRPS10,0.0813,0.105,0.279,0.0232,0.109
TGM5,0.107,0.262,0.164,0.0213,0.148
FZD9,0.207,1.04,0.448,0.0442,0.173
CIC,0.059,0.0875,0.309,0.0144,0.0661
NUDT13,0.126,0.796,0.452,0.0224,0.163
HCN2,0.195,0.0683,0.209,0.0532,0.114
PCDHA12,0.151,0.53,0.326,0.0122,0.339
ADAMDEC1,0.0743,0.159,0.227,0.0316,0.153
TMEM62,0.106,0.288,0.22,0.0178,0.249
CLEC3B,0.1,-0.00245,0.33,0.0101,0.261
SCAMP3,0.0628,0.0893,0.343,0.0169,0.126
ARHGAP44,0.13,0.205,0.319,0.0252,0.264
SPRY4,0.101,0.407,0.361,0.0283,0.254
UBE4A,0.0681,0.124,0.259,0.0356,0.124
ENTREP1,0.178,0.508,0.303,0.0259,0.355
SOX5,0.21,0.917,0.416,0.0467,0.407
YME1L1,0.0485,0.143,0.26,0.0457,0.177
GIT1,0.206,0.445,0.321,0.101,0.257
ZFY,0.107,0.358,0.291,0.019,0.205
HNRNPM,0.0664,0.126,0.384,0.0343,0.114
EXOSC3,0.141,0.382,0.409,0.0313,0.211
ST6GALNAC2,0.0573,0.228,0.281,0.0711,0.221
CHRNA5,0.105,0.129,0.268,0.0199,0.111
ITGA2,0.0834,0.0279,0.185,0.0303,0.0921
M6PR,0.0838,0.0979,0.272,0.0177,0.0906
SPATA20,0.105,0.307,0.328,0.0313,0.106
PPIL2,0.129,1.34,0.741,0.0724,0.231
COL4A1,0.0592,0.0752,0.262,0.0298,0.103

6 entries from above, arranged by “BNIP3 mRNA, set 1”, lowest first.
Target gene,"BNIP3L mRNA, set 1","NDRG1 mRNA, set 1","BNIP3 mRNA, set 1","ALDOC mRNA, set 1","ACSL5 mRNA, set 1"
UBE4A,0.0681,0.124,0.259,0.0356,0.124
ENTREP1,0.178,0.508,0.303,0.0259,0.355
ARHGAP44,0.13,0.205,0.319,0.0252,0.264
CLEC3B,0.1,-0.00245,0.33,0.0101,0.261
SCAMP3,0.0628,0.0893,0.343,0.0169,0.126
SPRY4,0.101,0.407,0.361,0.0283,0.254

More entries:
Target gene,"BNIP3L mRNA, set 1","NDRG1 mRNA, set 1","BNIP3 mRNA, set 1","ALDOC mRNA, set 1","ACSL5 mRNA, set 1"
ATXN10,0.218,0.398,0.54,0.0276,0.19
SLC35F6,0.111,0.116,0.363,0.0256,0.19
RPUSD2,0.0622,0.507,0.285,0.0367,0.207
IL11RA,0.111,0.0952,0.294,0.0187,0.0936
UHRF2,0.0455,0.226,0.25,0.0138,0.218
IFT54,0.0921,0.136,0.467,0.0207,0.143
FCRL1,0.0905,0.122,0.303,0.0131,0.147
OR51E2,0.129,0.0704,0.223,0.0151,0.124
FAT4,0.239,0.258,0.458,0.0527,0.175
PGPEP1,0.173,0.144,0.189,0.0192,0.0957
SRMS,0.217,0.0678,0.293,0.00699,0.409
UBE2J2,0.0667,0.0807,0.238,0.0149,0.111
AURKAIP1,0.109,0.159,0.252,0.0144,0.156
ARPC2,0.0465,0.242,0.311,0.0349,0.237
SERF1B,0.144,1.38,0.368,0.112,0.319
METTL5,0.166,0.0895,0.272,0.0417,0.0283
CLCNKA,0.0587,0.0834,0.272,0.0118,0.0595
